Experimental data reported in paper PMC4424430.
These are yes or no findings as the source states them, for the method shown. Binding seen in cells or lysates may run through a third protein. Some binding calls cover weakened binding; strength is not graded here.

Chains of the proteins cited; added tags and fusions are not shown.
UniProt P51532: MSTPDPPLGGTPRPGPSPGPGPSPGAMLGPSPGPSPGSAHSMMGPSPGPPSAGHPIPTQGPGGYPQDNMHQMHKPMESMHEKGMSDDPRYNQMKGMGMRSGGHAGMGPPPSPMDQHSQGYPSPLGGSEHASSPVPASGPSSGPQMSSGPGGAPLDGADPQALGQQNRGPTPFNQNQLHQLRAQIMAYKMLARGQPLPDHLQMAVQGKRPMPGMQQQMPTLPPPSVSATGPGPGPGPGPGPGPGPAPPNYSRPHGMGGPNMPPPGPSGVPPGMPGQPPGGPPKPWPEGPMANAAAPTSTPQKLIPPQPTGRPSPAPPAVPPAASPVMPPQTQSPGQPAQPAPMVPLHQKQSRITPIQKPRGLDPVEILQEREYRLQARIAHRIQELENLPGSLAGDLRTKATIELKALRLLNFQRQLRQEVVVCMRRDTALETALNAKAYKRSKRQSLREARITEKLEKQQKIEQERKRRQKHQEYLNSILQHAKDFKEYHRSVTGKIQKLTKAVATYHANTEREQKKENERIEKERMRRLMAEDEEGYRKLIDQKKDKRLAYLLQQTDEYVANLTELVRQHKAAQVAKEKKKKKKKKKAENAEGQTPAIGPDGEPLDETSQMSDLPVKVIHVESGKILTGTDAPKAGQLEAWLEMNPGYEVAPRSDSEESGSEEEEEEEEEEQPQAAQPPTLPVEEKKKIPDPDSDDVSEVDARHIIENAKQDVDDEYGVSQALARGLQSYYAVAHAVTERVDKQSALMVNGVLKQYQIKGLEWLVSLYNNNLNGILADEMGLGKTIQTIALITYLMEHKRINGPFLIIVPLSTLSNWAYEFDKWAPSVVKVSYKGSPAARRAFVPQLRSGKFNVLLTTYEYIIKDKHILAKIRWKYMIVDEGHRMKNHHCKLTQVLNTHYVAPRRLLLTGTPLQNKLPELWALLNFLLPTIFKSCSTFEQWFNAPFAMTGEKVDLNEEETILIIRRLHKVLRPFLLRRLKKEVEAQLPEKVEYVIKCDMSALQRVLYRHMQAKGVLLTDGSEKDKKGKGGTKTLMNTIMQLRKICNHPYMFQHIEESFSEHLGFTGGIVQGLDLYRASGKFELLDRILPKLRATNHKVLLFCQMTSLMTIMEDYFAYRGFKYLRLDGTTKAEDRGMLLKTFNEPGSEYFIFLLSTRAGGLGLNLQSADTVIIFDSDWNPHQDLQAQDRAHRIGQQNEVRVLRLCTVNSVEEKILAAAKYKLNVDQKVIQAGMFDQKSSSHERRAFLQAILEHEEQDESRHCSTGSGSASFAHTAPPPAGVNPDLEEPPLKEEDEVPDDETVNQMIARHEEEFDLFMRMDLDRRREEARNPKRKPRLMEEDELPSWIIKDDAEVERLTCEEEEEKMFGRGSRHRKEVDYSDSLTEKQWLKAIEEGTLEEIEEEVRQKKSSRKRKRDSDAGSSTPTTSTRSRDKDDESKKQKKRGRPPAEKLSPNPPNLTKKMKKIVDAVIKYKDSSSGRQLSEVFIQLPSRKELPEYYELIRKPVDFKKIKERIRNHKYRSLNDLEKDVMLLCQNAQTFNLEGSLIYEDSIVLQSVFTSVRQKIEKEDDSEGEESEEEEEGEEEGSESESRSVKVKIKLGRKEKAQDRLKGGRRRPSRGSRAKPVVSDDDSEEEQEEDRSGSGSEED

What was measured:
[1] = target: T1, IRF2 (human (endogenous in HeLa)) (UniProt P14316); assay: co-IP; HeLa nuclear extracts immunoprecipitated with anti-IRF1 or anti-IRF2 antibodies, SDS-PAGE, blotted with BRG1 antibodies; also with ethidium bromide added
T1 sequence: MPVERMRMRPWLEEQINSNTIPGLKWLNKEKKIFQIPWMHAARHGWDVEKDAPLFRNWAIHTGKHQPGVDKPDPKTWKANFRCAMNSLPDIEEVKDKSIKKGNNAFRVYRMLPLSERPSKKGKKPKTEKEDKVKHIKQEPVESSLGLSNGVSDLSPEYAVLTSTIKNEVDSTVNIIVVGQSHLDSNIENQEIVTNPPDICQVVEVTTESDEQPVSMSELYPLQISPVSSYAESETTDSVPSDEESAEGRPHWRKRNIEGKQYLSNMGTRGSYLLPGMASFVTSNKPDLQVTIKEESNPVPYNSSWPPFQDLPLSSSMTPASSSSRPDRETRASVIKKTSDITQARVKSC

[2] = target: T2, IRF1 (human (endogenous in HeLa)) (UniProt P10914); assay: as above
T2 sequence: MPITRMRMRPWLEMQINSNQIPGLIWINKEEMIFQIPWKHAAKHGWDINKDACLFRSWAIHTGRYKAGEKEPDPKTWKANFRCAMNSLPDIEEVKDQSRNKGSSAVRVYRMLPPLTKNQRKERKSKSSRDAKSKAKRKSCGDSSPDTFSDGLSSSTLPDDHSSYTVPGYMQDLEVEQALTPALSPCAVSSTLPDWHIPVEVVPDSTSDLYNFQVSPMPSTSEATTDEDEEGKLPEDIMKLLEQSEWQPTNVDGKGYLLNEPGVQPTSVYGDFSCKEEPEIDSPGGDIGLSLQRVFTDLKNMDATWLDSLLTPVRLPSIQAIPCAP

BRG1 (from UniProt P51532 1-1647)
binding [1]: binds | binding [2]: binds
